# Test results: PMC12767760
# These are yes or no findings as the source states them, for the method shown.
# Molecular target: Chandipura virus matrix protein, full length, after TEV cleavage of GFP_CHPV_M (Chandipura virus) (UniProt Q9WH76)
# Experiment: SEC; analytical size exclusion on a self-packed Superdex 200 column (about 12 mL bed), buffer E (20 mM HEPES pH 7.5, 200 mM NaCl), 4-6 °C, calibrated with Bio-Rad gel filtration standards; elution around 10.25 mL between Ovalbumin (44 kDa) and Myoglobin (17 kDa); both purified
substance,measurement,value
"Chandipura virus matrix protein, full length, after TEV cleavage of GFP_CHPV_M (from UniProt Q9WH76 1-229)",binding,no binding
